Source: PubChem BioAssay AID686938 (Drosophila RNAi Screening Center, 2013)

Purpose: 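Knock-downs reducing store-operated calcium influx in Drosophila cells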 (primary screen)
System: Drosophila S2R+ cells
Knock-down reagent: long dsRNA against Drosophila genes, about 0.25 µg dsRNA per well, roughly 10,000 cells
Time to read-out: 5 days of knock-down before the calcium assay
Conditions: thapsigargin (SERCA pump blocker) to empty calcium stores; entry signal taken 4 min after adding it
Measurement: 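Duplicate raw fluo-4 intensities per well from a plate reader, at rest and four minutes after thapsigargin emptied calcium stores; entry-to-rest ratio filled for only some wells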
Direction: calcium entry signal: higher = stronger calcium signal after store depletion; entry to resting ratio: higher = more calcium entry relative to resting level; resting calcium signal: higher = higher resting calcium signal
Active means: 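Hit if the duplicate-averaged plate z-score for entry over resting signal is under −3; wells with weak total dye signal (Fmax z < −2) or more than 5 off-targets removed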
Meaning of the calls: active = strongly reduced calcium entry; inactive = no strong reduction
The screen tested about 23,000 reagents; below is a random part of those with a known target gene and a result. Of all reagents, 75 (0.33%) are marked active. 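Raw plate signals without normalisation; calls rest on plate z-scores that were not deposited; ratio present for only 364 wells.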 Names joined by + are all predicted targets of the reagent. Not given: the dose of the treatment.

target	dsRNA	calcium entry signal, replicate 1 (fluorescence units)	calcium entry signal, replicate 2 (fluorescence units)	entry to resting ratio	resting calcium signal, replicate 1 (fluorescence units)	resting calcium signal, replicate 2 (fluorescence units)	activity call
CG3604	DRSC00618	3.42e7	3.30e7		1.89e7	1.62e7	inactive
CG4741	DRSC04228	4.37e7	4.20e7		2.13e7	2.05e7	inactive
CG4741	DRSC04485	4.09e7	4.38e7		2.08e7	2.05e7	inactive
Taf3	DRSC17170	2.14e7	3.38e7		1.13e7	1.59e7	inactive
Rga + asRNA:ASTR	DRSC12364	5.36e7	3.61e7		2.78e7	1.79e7	inactive
ppk12	DRSC04086	2.46e7	2.78e7		1.35e7	1.20e7	inactive
Tmem43	DRSC10964	3.95e7	5.73e7		1.77e7	2.34e7	inactive
mRpS18A	DRSC14369	5.02e7	3.19e7		2.29e7	1.50e7	inactive
CG12299	DRSC02158	4.41e7			1.80e7		inactive
Tep4	DRSC03453	5.67e7	4.79e7		2.69e7	2.16e7	inactive
CG31300	DRSC14657	2.97e7	5.39e7		1.68e7	2.25e7	inactive
fbl	DRSC11886	2.24e7	3.79e7		1.14e7	1.71e7	inactive

Entries above whose target name begins with T or t:
target	dsRNA	calcium entry signal, replicate 1 (fluorescence units)	calcium entry signal, replicate 2 (fluorescence units)	entry to resting ratio	resting calcium signal, replicate 1 (fluorescence units)	resting calcium signal, replicate 2 (fluorescence units)	activity call
Taf3	DRSC17170	2.14e7	3.38e7		1.13e7	1.59e7	inactive
Tmem43	DRSC10964	3.95e7	5.73e7		1.77e7	2.34e7	inactive
Tep4	DRSC03453	5.67e7	4.79e7		2.69e7	2.16e7	inactive

The list goes on.
target	dsRNA	calcium entry signal, replicate 1 (fluorescence units)	calcium entry signal, replicate 2 (fluorescence units)	entry to resting ratio	resting calcium signal, replicate 1 (fluorescence units)	resting calcium signal, replicate 2 (fluorescence units)	activity call
Elo68alpha	DRSC22725	3.60e7	3.86e7		2.09e7	1.89e7	inactive
Cpr66Cb	DRSC10769	2.77e7	4.88e7		1.29e7	2.12e7	inactive
CG15740	DRSC19706	3.17e7	2.59e7		2.04e7	1.51e7	inactive
CG15740	DRSC23079	5.80e7	2.85e7		2.97e7	1.27e7	inactive
st	DRSC11399	2.65e7	3.25e7		1.21e7	2.10e7	inactive
Rint1	DRSC11010	4.44e7	3.49e7		3.28e7	1.68e7	inactive
CG3285	DRSC00589	4.44e7			2.21e7		inactive
CG15082	DRSC06513	4.14e7	4.42e7		1.73e7	2.12e7	inactive
CG32119	DRSC09248	3.77e7	3.24e7		1.70e7	1.55e7	inactive
CG32119	DRSC21462	2.70e7	3.22e7		1.57e7	1.30e7	inactive
CG13364	DRSC17898	2.86e7	4.17e7	2	1.46e7	1.74e7	inactive
CG13364	DRSC21263	3.77e7	4.93e7		1.88e7	2.04e7	inactive
